{"source": "PubChem BioAssay AID1347423", "about": "(Functional Genomics Laboratory (NCATS/FGL), 2020)", "note": "Out of some 52,000 sequences screened, about 210 (0.4%) were called active.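 How the source made its calls: active means gene whose silencing raises cell survival under the drug, median off-target-corrected z-score across its silencing RNAs 2 or more; inactive means the rest.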 The list shows a part of the results."}
{"assay": "Resistance to Poly (ADP-Ribose) Polymerase inhibitor: Gene Identification via Genome-wide siRNA Screen", "details": "mouse BRCA2 R2336H ES cells, olaparib, CellTiter-Glo viability; hits give high values", "summary_of_the_method": "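Mouse BRCA2 R2336H ES cells were reverse-transfected with siRNA (20 nM final), treated at 48 h with 500 nM olaparib, and read by CellTiter-Glo after 72 h. Scores: MAD-based z per siRNA, median per gene, seed off-target correction.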"}
{"sequence": "GGAAAUCAGCUGUGAAAAATT against 4632423N09Rik", "z-score": "inactive: -1.36"}
{"sequence": "GCAAUUAGUGGUUACAAGUTT against Corin", "z-score": "inactive: 0.115"}
{"sequence": "CCUUCACCUGGCUAUUAGATT against Kif12", "z-score": "inactive: 0.61"}
{"sequence": "AGCCACUUAUGUUAAUAAATT against 2700061N24Rik", "z-score": "inactive: -0.228"}
{"sequence": "GGAAGUCUUGGAUUACAGUTT against Srpr", "z-score": "inactive: -1.06"}
{"sequence": "GGACCUGUAUCUUGAAUCCTT against Tex2", "z-score": "inactive: 0.56"}
{"sequence": "GGGCAACUAUCUUCAAAAATT against 4930519N16Rik", "z-score": "inactive: 0.235"}
{"sequence": "GGCCAAAAAACAAUGCCCATT against Sprr4", "z-score": "inactive: 0.93"}
{"sequence": "GGAAGACCUUGAAUUCCAGTT against Sas", "z-score": "inactive: -0.436"}
{"sequence": "GGAUCAGAGUAUUUUUGUUTT against Tbx6", "z-score": "inactive: -0.959"}
{"sequence": "CCUCCAAAAUGUGUCCACUTT against Krt1-10", "z-score": "inactive: 0.394"}
{"sequence": "GGCAUUUCUAGUUUUGUGGTT against 3230401K02Rik", "z-score": "inactive: 0.331"}
{"sequence": "GGUACUUCAUGAGUUGUUCTT against Flt3", "z-score": "inactive: 0.615"}
{"sequence": "GGUUUUUUGUAGCAAACAGTT against Phc2", "z-score": "inactive: 1.34"}
{"sequence": "GGACUUUGUGAUCUUUCCATT against Miz1", "z-score": "inactive: -0.819"}
{"sequence": "GGACUGUGUGUGCAAAGGUTT against Mt3", "z-score": "inactive: -0.951"}
{"sequence": "CCAGAGCCCAAGCCAAGUUTT against Nanos3", "z-score": "inactive: -2.45"}
{"sequence": "GCCGCUGCACUACAAUUUGTT against Trhde", "z-score": "inactive: 0.39"}
{"sequence": "GGAGAAGGGACCUCAGAACTT against Plrg1", "z-score": "inactive: -1.82"}
{"sequence": "GGUGUUCCAGUUACCUGAGTT against C630013N10Rik", "z-score": "inactive: -1.68"}
{"sequence": "GCUCCCUUUACAACUCUCATT against Ifna6", "z-score": "inactive: 0.175"}
{"sequence": "GGACAACGUGCUCAUUAGUTT against BC021921", "z-score": "inactive: -0.113"}
{"sequence": "GGAACAGUGCUUGUAUCAGTT against Sfrs16", "z-score": "inactive: -0.897"}
{"sequence": "GGUCAUUGUGUUAUUACCATT against Prdx4", "z-score": "inactive: -1.01"}
{"sequence": "GGAUAUGUGUCGCCAUAUATT against 4930590J08Rik", "z-score": "inactive: -0.629"}
{"sequence": "CCCACAGUUGACUGUCUUUTT against Clcnkb", "z-score": "inactive: -2.35"}
{"sequence": "GGUUUUUCUCAACAAACUCTT against Svs2", "z-score": "inactive: -0.434"}
{"sequence": "GCCAAUUGAUUAUAAUCGCTT against Riok2", "z-score": "inactive: 0.785"}
{"sequence": "GGCUCCAAGGAGAAUUGUUTT against Bbox1", "z-score": "inactive: -1.3"}
{"sequence": "GCCCUGAUGCCAAAUUCCATT against Tde1", "z-score": "inactive: 0.015"}
{"sequence": "GGCUUCUUUAUGUUUCCUUTT against 2810449C13Rik", "z-score": "inactive: -1.33"}
{"sequence": "GGAACAAGUUUGUGCUUUCTT against Cpd", "z-score": "inactive: 2.56"}
{"sequence": "GGAGAACAUUCAAAAUACGTT against Sgol2", "z-score": "inactive: -0.973"}
{"sequence": "GGAGUUAAACAAACAGAGUTT against Psma6", "z-score": "inactive: -2.36"}
{"sequence": "GGACUUGGGUCAUUGUGAGTT against Grpel1", "z-score": "inactive: -0.0158"}
{"sequence": "GGGUGAUGAGCCUAAGCUATT against Scamp5", "z-score": "inactive: -0.679"}
{"sequence": "GGACAGCUACUUAUUUCUUTT against V1rd3", "z-score": "inactive: -0.339"}
{"sequence": "CCGAAGUGGACGAAUACUUTT against A330102K23Rik", "z-score": "inactive: -1.63"}
{"sequence": "GGAUACAAUGCAACUGUCCTT against Kif4", "z-score": "inactive: 0.653"}
{"sequence": "GGGCAAAGACAGUAUUCAATT against B530045E10Rik", "z-score": "inactive: 4.22"}
{"sequence": "GGUCUCCAAGACGACAUAGTT against 2610209M04Rik", "z-score": "inactive: -2.01"}
{"sequence": "GGAACAAAAGUGUGAAGAATT against Ccnd2", "z-score": "inactive: -0.745"}
{"sequence": "GGCUUAUGUCACCAACUUGTT against 1300014I06Rik", "z-score": "inactive: -0.323"}
{"sequence": "CCAUCUAACCCUAUAUUAGTT against G6pdx", "z-score": "inactive: 0.154"}
{"sequence": "CGUGGCUAGGUUAUUUAAATT against Htr1d", "z-score": "inactive: 0.82"}
{"sequence": "GGGCGAAAAGGUGAAACAATT against Flot2", "z-score": "inactive: -1.08"}
{"sequence": "GUGAUGUGGCCAUGUCAAUTT against Olfr641", "z-score": "inactive: 1.04"}
{"sequence": "GCAGAAGUUUUGAGCCACUTT against Ralgps2", "z-score": "inactive: -0.107"}
{"sequence": "GGUGGUGUGUGAUGAGAAUTT against 4932702K14Rik", "z-score": "inactive: -0.314"}
{"sequence": "GGAAGAAAUGCAGGUGUGGTT against Gab3", "z-score": "inactive: -0.49"}
{"sequence": "GCUCAUCGAGCCUGUACACTT against Crsp7", "z-score": "inactive: -0.822"}
{"sequence": "GGAAGAAUAAAGUGCUUUGTT against Chga", "z-score": "inactive: 0.735"}
{"sequence": "GGGUGUACAGGAUUUCCACTT against Nfyc", "z-score": "inactive: 0.91"}
{"sequence": "GGAGUUAUGGAUGACGUGGTT against Stard4", "z-score": "inactive: 0.945"}
{"sequence": "GCCUGACGAUAAGAAAGAATT against Map4k4", "z-score": "inactive: -0.724"}
{"sequence": "GGACAAGAUGAACUUUUCCTT against 2510048O06Rik", "z-score": "inactive: -3.35"}
{"sequence": "GGAGAUCCACAUCAACGAATT against Slc9a1", "z-score": "inactive: 0.683"}
{"sequence": "CCCAAUCCUGUCAAUAGUCTT against Gfpt1", "z-score": "inactive: 0.144"}
{"sequence": "GGACAGAAACUCCUUAUCATT against Zec", "z-score": "inactive: -0.192"}
{"sequence": "GGUACACAGCCAAAGACUGTT against A030005L19Rik", "z-score": "inactive: -0.946"}
{"sequence": "GGGUUUUAAGUUUACUGCUTT against 4930579G22Rik", "z-score": "inactive: 1.95"}
{"sequence": "GGUUAAAAAGAUCCCUUGUTT against A230056M16", "z-score": "inactive: 0.745"}
{"sequence": "GCACUAGCUCUUCACCUCUTT against 5730455A04Rik", "z-score": "inactive: -1.26"}
{"sequence": "GGAAAGUCACAACACUUCCTT against 6330527O06Rik", "z-score": "inactive: -0.761"}
{"sequence": "GGUUUUGGUCACUCUUUGGTT against Olfr1240", "z-score": "inactive: 1.16"}
{"sequence": "GCAGAUCAUUCCCGUGUUGTT against P2ry14", "z-score": "inactive: 0.873"}
{"sequence": "GGAAGGUAUCCACUGUGCATT against Nme6", "z-score": "inactive: -0.325"}
{"sequence": "GGACCUGUUUGAUCCCAUCTT against Ckm", "z-score": "inactive: 0.0814"}
{"sequence": "GGAGGAAGCUGAACUCUGGTT against Bat8", "z-score": "inactive: -0.592"}
{"sequence": "CGAAACCAACAGUUAGAAGTT against 1110014P06Rik", "z-score": "inactive: 0.0196"}
{"sequence": "GGGCCUAUCAAGAUUUUCCTT against Stk11ip", "z-score": "inactive: 1.6"}
{"sequence": "CCCUAAUUCUUAGGCCUUUTT against Bloc1s3", "z-score": "inactive: 0.0832"}
{"sequence": "GCCUAUGGAAUGGACAUACTT against 9130012B15Rik", "z-score": "inactive: 2.06"}
{"sequence": "GGCUUAUGUUUGCUUUGUUTT against Piwil1", "z-score": "inactive: -0.416"}
{"sequence": "GGUUCUGGAAAGUUCUCUGTT against Sorcs2", "z-score": "inactive: -1.4"}
{"sequence": "GGUUUUACGGAAACGGGAATT against Nid2", "z-score": "inactive: -1.12"}
{"sequence": "CCAAGUUCGUGACAAACAUTT against Trpv1", "z-score": "inactive: 1.09"}
{"sequence": "GCUCAACUGCCUGAGAUGCTT against Pink1", "z-score": "inactive: 0.645"}
{"sequence": "GGUGACUCACUCGUGUUAATT against Scn9a", "z-score": "inactive: 0.232"}
{"sequence": "GGACCUUUAUAAUGACAGGTT against Uqcrb", "z-score": "inactive: -0.887"}
{"sequence": "GGAAUGAACUCUUUGAAAATT against Opa1", "z-score": "inactive: 1.6"}
{"sequence": "GCCUGAUGUACAUCACCACTT against Olfr615", "z-score": "inactive: 0.121"}
{"sequence": "GUUCCACAAAGACCAUCAGTT against Olfr134", "z-score": "inactive: 0.53"}
{"sequence": "GGUCUGCUGUUGAUCGUUCTT against Sct", "z-score": "inactive: 1.09"}
{"sequence": "GCAACGAGAACUCUUUUUATT against Mint", "z-score": "inactive: 0.682"}
{"sequence": "CCGAGCAAGGCAUAGAAAATT against LOC541463", "z-score": "inactive: -0.67"}
{"sequence": "GCCAUUGUUGCUUACUCGGTT against Hspa14", "z-score": "inactive: 0.545"}
{"sequence": "GCCAAAUUGCACCAUGUAUTT against 9530002K18Rik", "z-score": "inactive: -0.601"}
{"sequence": "GCCACGAGUUCUUUGAAGCTT against Ubxd1", "z-score": "inactive: 0.256"}
{"sequence": "GGGAGGCAAGCAUAAGACUTT against Cycs", "z-score": "inactive: -0.19"}
{"sequence": "CCCUUUAGCUUCCUAAUGUTT against Rhag", "z-score": "inactive: -0.47"}
{"sequence": "GGAUCAUGGAUAUACCACCTT against Smarcb1", "z-score": "inactive: -1.33"}
{"sequence": "GGUUUUAUCAGAUCCCAAGTT against Dclre1c", "z-score": "inactive: 0.22"}
{"sequence": "GCAAUAAUUUCUCACCUAGTT against Tcfe2a", "z-score": "inactive: -1.29"}
{"sequence": "GGACCUGAAAAUCAAAUGATT against Arpc1b", "z-score": "inactive: 0.0829"}
{"sequence": "GGAUUUGUUUUCAGAUGUGTT against 2810439M05Rik", "z-score": "inactive: -0.798"}
{"sequence": "GCUAUCGGUGUCCUGACCATT against Pfkp", "z-score": "inactive: -0.134"}
{"sequence": "CCCUUUUGAAAUUCUGACCTT against Zfp46", "z-score": "inactive: 0.54"}
{"sequence": "CCGCUUGUAUUCGACUUAUTT against LOC433719", "z-score": "inactive: -2.51"}
{"sequence": "GGUUAUAGCAAAGCUGAAATT against BC005752", "z-score": "inactive: -3.17"}
{"sequence": "GGAGACGUGAUUGAAAGGGTT against Fabp6", "z-score": "inactive: -1.36"}
{"sequence": "GGAGGACAUCAAUAAAACATT against Slc2a10", "z-score": "inactive: 0.111"}
{"sequence": "GGCGGCCUUAGUAGAUAUCTT against Acsl4", "z-score": "inactive: -0.686"}
{"sequence": "GGCCAAUCAAGAUAGCCACTT against Dnajc1", "z-score": "inactive: 1.32"}
